Reference: US6890944B2, “Organic acid salt of amlodipine” (priority 2002, dated 2005)
Where a name gives a salt, the structure may show the parent alone. At least one compound was matched to its structure with a doubt left.

Experiment: Test for light stability: aqueous solutions stored at 25° C. for 4 weeks exposed to sunlight (HPLC)
Format: physicochemical
Settings: aqueous solution, stored for 4 weeks, 25° C. sunlight; Hydrochloride
Protocol: The resulting aqueous solutions were stored at 25° C. for 4 weeks while being exposed to sunlight. A measurement was made of the contents of the salts with resort to HPLC under the same conditions as in the chemical stability test.

CCOC(=O)C1=C(COCCN)NC(C)=C(C(=O)OC)C1c1ccccc1Cl (stereo not shown) [Hydrochloride, Amlodipine Hydrochloride]
Content (HPLC): 60.5%
